Data published in patent US20170275653A1.
These are yes or no findings as the source states them, for the method shown. Some results given as binding are weak or reduced against the parent protein; the word gives no strength. Where a sequence is shown, tags or fusion partners need not be part of it.

Target: GFP-YFP two-protein polypeptide scaffold (recombinant scaffold polypeptide with a B. cellulosolvens cohesin in place of the A. cellulolyticus cohesin)
Test: fluorescence microscopy on softwood pulp, scaffold-tethered versus free fusion fluorescent proteins

binding: binds
B1: YFP-dockerin recombinant target polypeptide (protein)
chain: MKQHDFFKSAMPEGYVQERTIFFKDDGNYKTRAEVKFEGDTLVNRIELKGIDFKEDGNILGHKLEYNYNSHNVYITADKQKNGIKANFKIRHNIEDGGVQLADHYQQNTPIGDGPVLLPDNHYLSYQSALSKDPNEKRDHMVLLEFVTAAGITLGMDELYKLVPPKGTATVLYGDVDNDGNVDSDDYAYMRQWLIGMIADFPGGDIGLANADVDGDGNVDSDDYAYMRQWLIGMISEFPAEQKALEHHHHHH
